Values from PubChem BioAssay AID1159578 (Peter MacCallum Cancer Centre, 2015).
Screen: 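Genome-wide hunt for genes controlling movement of lymphatic endothelial cells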 (primary screen). Cells: human lymphatic endothelial cells. Knock-down reagent: siRNA pool against human genes, 40 nM. Time to read-out: 48 h after transfection. Measured: 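Cells stained with dye and imaged after a scratch; covered wound area and nuclei counted, duplicates averaged, migration set against mock wells and turned into a robust z-score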. Scale: migration robust z-score: higher = faster migration into the scratch; migration relative to mock: higher = more scratch area covered than mock; nuclei per well: higher = more cells in the well. Hit rule: 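Pools averaging fewer than 3300 nuclei are never called; remaining pools count as changed when migration robust z lies outside -2 to 2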. Meaning of the calls: active = migration changed; inactive = no migration change, or too few cells.
Shown is an unselected part of about 18,000 deposited reagents. About 1,030 of all reagents (5.7%) were called active. 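Inactive calls also include pools with fewer than 3300 nuclei, whose migration was not assessed.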 Raw values are not corrected between plates. A number with no mark means an inactive call. No sequences are given here.

| Gene | PubChem SID | migration robust z-score | migration class with cell-count check | migration relative to mock | nuclei per well, duplicate mean |
| --- | --- | --- | --- | --- | --- |
| HNF4G | SID255350239 | 0.1 | migration z between -2 and 2; enough cells | 0.82 | 6342 |
| PNPLA7 | SID255365386 | -0.62 | migration z between -2 and 2; enough cells | 0.72 | 6031 |
| MEIOC | SID255364733 | -1.02 | migration z between -2 and 2; enough cells | 0.62 | 5633 |
| WARS1 | SID255353122 | -0.5 | migration z between -2 and 2; enough cells | 0.71 | 6356 |
| HIF1A | SID255350183 | 0.88 | migration z between -2 and 2; enough cells | 0.98 | 6198 |
| CAPS | SID255348689 | -1.34 | migration z between -2 and 2; enough cells | 0.54 | 5438 |
| FOXF1 | SID255349701 | 0.28 | migration z between -2 and 2; enough cells | 0.86 | 4796 |
| MED13 | SID255354707 | 0.36 | migration z between -2 and 2; enough cells | 0.88 | 6099 |
| FGB | SID255349664 | -0.31 | migration z between -2 and 2; enough cells | 0.74 | 4178 |
| PYGO1 | SID255356671 | 0.47 | migration z between -2 and 2; enough cells | 1 | 5446 |
| LY86 | SID255354285 | -1.43 | migration z between -2 and 2; enough cells | 0.52 | 4318 |
| CDC23 | SID255353745 | 0.28 | migration z between -2 and 2; enough cells | 0.96 | 5662 |
| CPB1 | SID255349057 | 1.35 | migration z between -2 and 2; enough cells | 1.06 | 5400 |
| TAS2R46 | SID255364586 | 1.03 | migration z between -2 and 2; enough cells | 1.16 | 6524 |
| MAB21L2 | SID255355203 | 0.02 | migration z between -2 and 2; enough cells | 0.89 | 5251 |
| KIF5B | SID255350642 | 0 | migration z between -2 and 2; enough cells | 0.8 | 5434 |
| PFKP | SID255351530 | -1.25 | migration z between -2 and 2; enough cells | 0.56 | 5384 |
| WFDC11 | SID255364575 | 0.24 | migration z between -2 and 2; enough cells | 0.95 | 5024 |
| EEIG1 | SID255365717 | -1 | migration z between -2 and 2; enough cells | 0.62 | 5528 |
| CDC42BPA | SID255353579 | -1.14 | migration z between -2 and 2; enough cells | 0.58 | 3328 |
| TOX2 | SID255361619 | 2.11 (active) | migration z above 2; enough cells | 1.43 | 6254 |
| DLGAP1-AS1 | SID255366122 | -0.1 | migration z between -2 and 2; enough cells | 0.86 | 5731 |
| CTDSP1 | SID255359621 | 2 | migration z between -2 and 2; enough cells | 1.19 | 6370 |

Part of the list above, set out differently.
Gene	PubChem SID	migration robust z-score	migration class with cell-count check	migration relative to mock	nuclei per well, duplicate mean
WFDC11	SID255364575	0.24	migration z between -2 and 2; enough cells	0.95	5024
EEIG1	SID255365717	-1	migration z between -2 and 2; enough cells	0.62	5528
CDC42BPA	SID255353579	-1.14	migration z between -2 and 2; enough cells	0.58	3328
TOX2	SID255361619	2.11 (active)	migration z above 2; enough cells	1.43	6254
